The other results are listed elsewhere or left out.

Sequences of proteins named here, by UniProt entry; tags and fusion partners are left off. A change or cut given only in a name is not applied to a line headed by its entry.
UniProt Q11206: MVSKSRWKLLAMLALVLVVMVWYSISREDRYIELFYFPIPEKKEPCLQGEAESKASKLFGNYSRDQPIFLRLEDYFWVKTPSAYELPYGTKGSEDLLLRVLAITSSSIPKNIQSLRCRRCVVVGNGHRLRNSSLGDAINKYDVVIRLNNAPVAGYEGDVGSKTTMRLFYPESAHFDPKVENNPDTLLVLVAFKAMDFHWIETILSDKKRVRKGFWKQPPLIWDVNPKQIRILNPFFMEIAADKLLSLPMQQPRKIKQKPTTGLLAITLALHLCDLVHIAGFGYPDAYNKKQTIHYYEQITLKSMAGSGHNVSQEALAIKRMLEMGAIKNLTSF
UniProt Q16384, whole entry, looked up: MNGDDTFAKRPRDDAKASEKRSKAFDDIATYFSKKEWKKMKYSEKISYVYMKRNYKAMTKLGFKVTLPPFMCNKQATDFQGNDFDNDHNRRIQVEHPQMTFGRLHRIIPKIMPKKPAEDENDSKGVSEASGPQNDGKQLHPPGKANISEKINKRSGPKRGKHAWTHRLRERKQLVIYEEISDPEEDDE
UniProt Q11201: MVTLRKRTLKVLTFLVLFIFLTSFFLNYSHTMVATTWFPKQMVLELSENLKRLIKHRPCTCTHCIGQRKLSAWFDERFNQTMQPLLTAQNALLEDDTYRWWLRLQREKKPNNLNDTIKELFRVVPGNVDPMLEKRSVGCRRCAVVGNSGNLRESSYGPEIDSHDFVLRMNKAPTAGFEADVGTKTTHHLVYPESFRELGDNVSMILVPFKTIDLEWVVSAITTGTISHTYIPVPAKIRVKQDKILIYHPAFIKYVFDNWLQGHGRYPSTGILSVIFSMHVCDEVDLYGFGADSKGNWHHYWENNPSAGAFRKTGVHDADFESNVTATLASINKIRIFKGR
UniProt Q9NY15: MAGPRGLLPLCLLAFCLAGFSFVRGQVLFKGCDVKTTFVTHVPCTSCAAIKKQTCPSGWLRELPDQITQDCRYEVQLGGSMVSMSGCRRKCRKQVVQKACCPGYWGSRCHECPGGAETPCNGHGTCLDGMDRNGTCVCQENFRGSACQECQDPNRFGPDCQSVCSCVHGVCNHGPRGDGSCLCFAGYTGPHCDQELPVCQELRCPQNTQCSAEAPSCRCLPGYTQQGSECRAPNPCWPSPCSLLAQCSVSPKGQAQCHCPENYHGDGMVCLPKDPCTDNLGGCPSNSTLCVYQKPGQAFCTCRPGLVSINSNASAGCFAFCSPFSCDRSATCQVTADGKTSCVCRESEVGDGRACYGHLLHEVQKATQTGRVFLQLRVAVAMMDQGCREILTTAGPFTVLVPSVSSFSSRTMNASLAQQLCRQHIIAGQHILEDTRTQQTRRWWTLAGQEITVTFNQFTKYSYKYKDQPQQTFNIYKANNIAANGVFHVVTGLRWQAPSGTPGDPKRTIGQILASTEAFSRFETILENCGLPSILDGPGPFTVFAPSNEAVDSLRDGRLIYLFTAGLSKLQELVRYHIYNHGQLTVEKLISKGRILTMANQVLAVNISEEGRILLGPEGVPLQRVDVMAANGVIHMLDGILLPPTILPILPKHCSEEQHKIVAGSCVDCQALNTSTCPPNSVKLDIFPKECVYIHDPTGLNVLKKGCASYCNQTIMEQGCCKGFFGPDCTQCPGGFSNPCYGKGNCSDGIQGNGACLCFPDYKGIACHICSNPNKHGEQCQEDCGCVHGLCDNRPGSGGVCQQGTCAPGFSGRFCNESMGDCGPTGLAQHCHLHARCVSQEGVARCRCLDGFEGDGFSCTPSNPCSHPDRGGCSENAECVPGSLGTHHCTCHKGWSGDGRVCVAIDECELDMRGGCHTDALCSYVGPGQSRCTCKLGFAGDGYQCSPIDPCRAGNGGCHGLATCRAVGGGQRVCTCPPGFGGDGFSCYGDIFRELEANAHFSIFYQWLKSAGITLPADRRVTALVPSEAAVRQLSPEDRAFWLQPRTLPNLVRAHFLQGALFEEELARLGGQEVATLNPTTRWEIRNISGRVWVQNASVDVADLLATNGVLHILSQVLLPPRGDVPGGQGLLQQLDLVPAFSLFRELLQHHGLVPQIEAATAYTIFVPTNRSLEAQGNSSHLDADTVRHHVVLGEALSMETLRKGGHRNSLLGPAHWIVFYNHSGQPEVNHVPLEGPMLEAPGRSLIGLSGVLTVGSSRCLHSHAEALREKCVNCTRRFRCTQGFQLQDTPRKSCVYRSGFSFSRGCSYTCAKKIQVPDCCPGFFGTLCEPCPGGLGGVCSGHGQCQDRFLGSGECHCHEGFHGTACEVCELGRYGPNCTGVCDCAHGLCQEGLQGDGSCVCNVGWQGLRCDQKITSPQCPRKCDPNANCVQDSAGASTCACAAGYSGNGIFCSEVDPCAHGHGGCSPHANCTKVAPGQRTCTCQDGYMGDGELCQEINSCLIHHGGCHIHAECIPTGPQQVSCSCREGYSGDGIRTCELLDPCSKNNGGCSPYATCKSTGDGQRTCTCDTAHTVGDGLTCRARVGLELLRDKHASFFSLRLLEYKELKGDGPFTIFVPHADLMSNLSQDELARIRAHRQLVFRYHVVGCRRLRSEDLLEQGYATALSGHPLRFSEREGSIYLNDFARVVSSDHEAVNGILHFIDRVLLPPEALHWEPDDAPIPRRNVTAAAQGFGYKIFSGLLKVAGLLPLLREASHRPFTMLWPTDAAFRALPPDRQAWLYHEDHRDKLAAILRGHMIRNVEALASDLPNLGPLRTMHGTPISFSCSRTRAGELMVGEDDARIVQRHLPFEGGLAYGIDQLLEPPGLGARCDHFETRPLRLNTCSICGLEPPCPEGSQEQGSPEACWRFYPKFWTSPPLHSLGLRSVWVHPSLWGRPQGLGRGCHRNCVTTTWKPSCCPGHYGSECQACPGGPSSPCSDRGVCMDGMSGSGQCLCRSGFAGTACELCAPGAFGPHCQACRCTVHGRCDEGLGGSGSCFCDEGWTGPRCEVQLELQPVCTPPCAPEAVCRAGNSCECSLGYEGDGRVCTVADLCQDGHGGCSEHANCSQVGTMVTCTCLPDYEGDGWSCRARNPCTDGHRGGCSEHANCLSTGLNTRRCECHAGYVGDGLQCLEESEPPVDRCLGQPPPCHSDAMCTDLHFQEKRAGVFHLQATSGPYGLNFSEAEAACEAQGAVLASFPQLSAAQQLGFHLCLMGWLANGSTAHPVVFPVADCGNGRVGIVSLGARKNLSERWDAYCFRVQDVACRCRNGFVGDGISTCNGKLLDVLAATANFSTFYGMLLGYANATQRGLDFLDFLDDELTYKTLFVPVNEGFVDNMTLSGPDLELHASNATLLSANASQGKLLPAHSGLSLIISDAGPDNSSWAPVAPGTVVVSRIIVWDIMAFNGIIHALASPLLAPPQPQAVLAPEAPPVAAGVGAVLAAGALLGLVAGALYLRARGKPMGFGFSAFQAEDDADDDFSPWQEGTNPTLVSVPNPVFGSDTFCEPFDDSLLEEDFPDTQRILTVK
UniProt Q7Z698: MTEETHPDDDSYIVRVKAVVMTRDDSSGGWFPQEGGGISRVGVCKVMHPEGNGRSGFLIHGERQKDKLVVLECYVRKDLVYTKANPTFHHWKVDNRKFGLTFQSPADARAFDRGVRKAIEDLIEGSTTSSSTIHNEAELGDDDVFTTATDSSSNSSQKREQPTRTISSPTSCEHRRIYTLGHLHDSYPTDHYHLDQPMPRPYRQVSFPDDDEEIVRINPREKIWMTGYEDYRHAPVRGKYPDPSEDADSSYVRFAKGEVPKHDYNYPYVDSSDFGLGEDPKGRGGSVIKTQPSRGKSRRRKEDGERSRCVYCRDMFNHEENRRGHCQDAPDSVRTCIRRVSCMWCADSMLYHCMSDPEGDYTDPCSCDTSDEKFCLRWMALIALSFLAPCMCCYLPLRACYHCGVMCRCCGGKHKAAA
UniProt Q15532, whole entry, looked up: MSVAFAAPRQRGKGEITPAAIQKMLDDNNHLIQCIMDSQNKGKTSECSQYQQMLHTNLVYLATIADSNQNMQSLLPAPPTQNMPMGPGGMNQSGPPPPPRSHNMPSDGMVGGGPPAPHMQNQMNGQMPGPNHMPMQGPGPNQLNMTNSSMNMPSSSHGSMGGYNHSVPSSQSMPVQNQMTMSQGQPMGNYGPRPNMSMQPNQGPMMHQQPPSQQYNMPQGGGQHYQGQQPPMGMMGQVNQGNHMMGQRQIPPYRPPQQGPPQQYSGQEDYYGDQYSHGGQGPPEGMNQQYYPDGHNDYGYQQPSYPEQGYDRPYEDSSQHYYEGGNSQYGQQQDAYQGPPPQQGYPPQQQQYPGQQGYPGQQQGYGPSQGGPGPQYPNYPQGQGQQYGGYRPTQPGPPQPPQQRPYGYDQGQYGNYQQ
UniProt Q9BYN0: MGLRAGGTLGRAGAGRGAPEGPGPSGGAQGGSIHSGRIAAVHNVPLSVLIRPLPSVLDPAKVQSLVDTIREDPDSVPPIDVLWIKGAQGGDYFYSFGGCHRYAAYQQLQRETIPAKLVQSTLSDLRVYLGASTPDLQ
UniProt Q9UH36: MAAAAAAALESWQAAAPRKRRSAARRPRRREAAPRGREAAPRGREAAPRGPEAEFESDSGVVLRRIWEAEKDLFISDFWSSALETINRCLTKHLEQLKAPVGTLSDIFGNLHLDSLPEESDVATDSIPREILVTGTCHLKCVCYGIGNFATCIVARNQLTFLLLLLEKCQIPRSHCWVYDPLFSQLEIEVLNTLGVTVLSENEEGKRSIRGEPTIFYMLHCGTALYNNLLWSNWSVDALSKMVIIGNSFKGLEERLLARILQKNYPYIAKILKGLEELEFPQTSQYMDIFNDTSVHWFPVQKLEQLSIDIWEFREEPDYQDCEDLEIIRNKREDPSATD
UniProt Q9P246, whole entry, looked up: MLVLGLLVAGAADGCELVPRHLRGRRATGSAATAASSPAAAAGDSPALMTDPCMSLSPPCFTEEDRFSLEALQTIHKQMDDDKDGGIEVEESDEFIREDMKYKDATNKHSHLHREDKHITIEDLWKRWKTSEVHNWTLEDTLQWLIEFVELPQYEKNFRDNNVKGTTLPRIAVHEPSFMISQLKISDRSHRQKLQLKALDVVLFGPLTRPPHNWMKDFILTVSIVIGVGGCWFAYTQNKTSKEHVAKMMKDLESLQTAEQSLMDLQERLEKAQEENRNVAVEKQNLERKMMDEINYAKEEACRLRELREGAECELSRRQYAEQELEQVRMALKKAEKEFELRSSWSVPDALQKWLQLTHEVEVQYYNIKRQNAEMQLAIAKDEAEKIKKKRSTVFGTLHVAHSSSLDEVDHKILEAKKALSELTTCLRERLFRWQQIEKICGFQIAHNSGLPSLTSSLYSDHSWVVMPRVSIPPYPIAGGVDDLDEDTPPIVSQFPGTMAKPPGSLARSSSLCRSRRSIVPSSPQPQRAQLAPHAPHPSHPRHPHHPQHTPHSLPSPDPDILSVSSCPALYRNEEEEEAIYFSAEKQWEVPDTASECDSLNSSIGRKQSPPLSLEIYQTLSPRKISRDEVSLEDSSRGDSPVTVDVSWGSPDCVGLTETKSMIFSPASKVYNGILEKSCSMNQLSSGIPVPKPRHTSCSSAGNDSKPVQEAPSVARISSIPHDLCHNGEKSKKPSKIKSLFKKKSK
UniProt Q7Z6B7: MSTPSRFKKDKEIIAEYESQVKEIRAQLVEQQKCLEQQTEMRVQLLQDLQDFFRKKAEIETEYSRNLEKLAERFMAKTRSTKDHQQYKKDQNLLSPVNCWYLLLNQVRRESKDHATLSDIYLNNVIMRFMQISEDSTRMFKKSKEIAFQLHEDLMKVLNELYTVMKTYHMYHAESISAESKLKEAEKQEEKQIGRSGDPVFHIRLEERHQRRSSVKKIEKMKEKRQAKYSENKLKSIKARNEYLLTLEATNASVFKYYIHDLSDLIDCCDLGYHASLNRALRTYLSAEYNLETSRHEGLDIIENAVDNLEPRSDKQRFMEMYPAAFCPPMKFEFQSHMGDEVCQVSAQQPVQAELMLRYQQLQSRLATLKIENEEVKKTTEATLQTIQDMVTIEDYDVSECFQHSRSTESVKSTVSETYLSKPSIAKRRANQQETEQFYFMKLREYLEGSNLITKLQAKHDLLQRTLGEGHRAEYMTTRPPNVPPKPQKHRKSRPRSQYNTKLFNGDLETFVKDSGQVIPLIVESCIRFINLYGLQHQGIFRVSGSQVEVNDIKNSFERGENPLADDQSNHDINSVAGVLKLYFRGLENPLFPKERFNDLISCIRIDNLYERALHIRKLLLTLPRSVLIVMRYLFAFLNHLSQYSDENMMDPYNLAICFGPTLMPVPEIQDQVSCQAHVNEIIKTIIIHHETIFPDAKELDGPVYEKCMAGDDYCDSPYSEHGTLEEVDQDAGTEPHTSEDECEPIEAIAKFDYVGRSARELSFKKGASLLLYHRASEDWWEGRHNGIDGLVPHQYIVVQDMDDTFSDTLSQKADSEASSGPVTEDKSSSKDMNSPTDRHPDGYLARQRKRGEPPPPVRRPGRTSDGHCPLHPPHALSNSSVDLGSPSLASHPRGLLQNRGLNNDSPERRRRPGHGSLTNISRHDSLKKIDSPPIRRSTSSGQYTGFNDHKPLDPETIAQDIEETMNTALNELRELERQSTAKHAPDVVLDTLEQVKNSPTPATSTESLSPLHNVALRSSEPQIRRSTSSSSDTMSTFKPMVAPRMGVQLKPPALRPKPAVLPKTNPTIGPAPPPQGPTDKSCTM

Compound in one experiment: CN1CC[C@H](c2c(O)cc(O)c3c(=O)cc(-c4ccccc4Cl)oc23)[C@H](O)C1 [alvocidib]
Kind of experiment: log2 fold change, soluble protein after heating vs DMSO (PISA); higher = thermal stabilisation; K562 cells, 10 uM, 30 min; active = over 0.2 and 3.5 SD of the protein, either way, in both replicates (recomputed). A digest of the protocol:
(§1)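 Quantification of soluble protein used TMTpro 16plex LC-MS/MS, with channel sums equalised. Samples were the supernatant after 21,000xg for 90 min of pooled aliquots from K562 cells (2×10^6 cells/mL) treated with 10 μM compound for 30 min, heated for 3 min over 48°C-58°C, and extracted in PBS with 0.5% NP-40 at 4°C. Values, from duplicates, describe thermal stability against control samples on a log2 fold-change scale.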
On to SPEN (UniProt Q96T58), for which the log2 fold change is inactive: -0.063. On the same count and under the same terms, then STK24 (UniProt Q9Y6E0), with inactive: -0.02. Same read-out and setting: then SPATS2 (UniProt Q86XZ4), with inactive: 0.328; and ST3GAL4 isoform 4 (UniProt Q11206), with inactive: -0.09; and SSX1 (UniProt Q16384), with inactive: 0.107. As to ST3GAL1 (UniProt Q11201), the log2 fold change was inactive: -0.344. Same read-out and setting: then SSBP2 (UniProt P81877), with inactive: -0.165; and SPRED1 (UniProt Q7Z699), with inactive: -0.22; and STAB1 (UniProt Q9NY15), with inactive: 0.082.

Take SPRED2 (UniProt Q7Z698): the log2 fold change was inactive: -0.073. The same measure, in the same setting: then SS18 (UniProt Q15532), with inactive: -0.303.

Compound in a further experiment: CN1CCc2c(c3ccccc3n2Cc2ccc(C(=O)NO)cc2)C1 [Tubastatin A]
The experiment is described as above. Summed up: as §1
As to SPEN (UniProt Q96T58), the log2 fold change is inactive: -0.059.

Turning to SRXN1 (UniProt Q9BYN0), the log2 fold change is inactive: 0.209. On to SRRD (UniProt Q9UH36), for which the log2 fold change was inactive: -0.171. SPIRE1 (UniProt Q08AE8): the log2 fold change was inactive: 0.141.

For the target STK24 (UniProt Q9Y6E0), the log2 fold change is inactive: -0.016. On to SRC isoform 2 (UniProt P12931), for which the log2 fold change was inactive: -0.108. The same measure, in the same setting: then ST3GAL4 isoform 4 (UniProt Q11206), with inactive: -0.075; and STIM2 isoform 2 (UniProt Q9P246), with inactive: -0.11; and SRGAP1 (UniProt Q7Z6B7), with inactive: 0.138. On the same count and under the same terms, for SS18 (UniProt Q15532) the value was inactive: 0.034.

These data come from the supplement of paper PMC10849652.
